Reference: patent publication US6638907 (BIOSTRATUM, dated 2003)
No constants are given. Whether binding was seen depends on the method and setting. Some results given as binding are weak or reduced against the parent protein; the word gives no strength.

Amino acid sequences for entries named in this document (tags omitted). A change or cut given only in a name is not applied to a line headed by its entry.
UniProt P23229: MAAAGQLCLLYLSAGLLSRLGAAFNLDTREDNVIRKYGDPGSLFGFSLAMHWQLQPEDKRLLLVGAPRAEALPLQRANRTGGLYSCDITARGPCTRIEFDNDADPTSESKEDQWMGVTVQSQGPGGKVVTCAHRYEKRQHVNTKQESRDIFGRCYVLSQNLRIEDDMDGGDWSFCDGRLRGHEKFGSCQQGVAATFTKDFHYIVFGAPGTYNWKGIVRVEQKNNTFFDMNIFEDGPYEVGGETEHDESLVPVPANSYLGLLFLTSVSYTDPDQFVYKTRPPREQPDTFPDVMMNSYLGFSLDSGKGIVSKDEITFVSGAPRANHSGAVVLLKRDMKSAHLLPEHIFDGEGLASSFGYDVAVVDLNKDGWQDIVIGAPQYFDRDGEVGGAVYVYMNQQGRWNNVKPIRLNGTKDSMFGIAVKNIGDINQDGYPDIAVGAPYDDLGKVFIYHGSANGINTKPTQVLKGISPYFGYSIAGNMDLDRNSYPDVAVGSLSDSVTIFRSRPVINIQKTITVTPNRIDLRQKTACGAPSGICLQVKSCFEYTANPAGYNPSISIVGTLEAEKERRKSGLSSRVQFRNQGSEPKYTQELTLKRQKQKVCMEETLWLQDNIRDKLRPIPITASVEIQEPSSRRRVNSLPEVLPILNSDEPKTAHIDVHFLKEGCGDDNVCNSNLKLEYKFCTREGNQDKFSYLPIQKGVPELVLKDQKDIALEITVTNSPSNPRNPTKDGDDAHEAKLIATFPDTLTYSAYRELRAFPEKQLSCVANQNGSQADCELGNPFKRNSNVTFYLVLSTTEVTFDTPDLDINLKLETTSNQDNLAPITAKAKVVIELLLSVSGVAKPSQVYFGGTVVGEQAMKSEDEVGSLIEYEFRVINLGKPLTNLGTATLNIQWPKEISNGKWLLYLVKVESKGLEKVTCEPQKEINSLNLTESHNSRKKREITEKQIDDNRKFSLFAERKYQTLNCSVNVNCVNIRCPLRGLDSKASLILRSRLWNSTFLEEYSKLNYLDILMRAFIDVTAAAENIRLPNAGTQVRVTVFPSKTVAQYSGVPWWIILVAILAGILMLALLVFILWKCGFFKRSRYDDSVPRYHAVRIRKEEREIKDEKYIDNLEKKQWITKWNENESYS
UniProt P05556: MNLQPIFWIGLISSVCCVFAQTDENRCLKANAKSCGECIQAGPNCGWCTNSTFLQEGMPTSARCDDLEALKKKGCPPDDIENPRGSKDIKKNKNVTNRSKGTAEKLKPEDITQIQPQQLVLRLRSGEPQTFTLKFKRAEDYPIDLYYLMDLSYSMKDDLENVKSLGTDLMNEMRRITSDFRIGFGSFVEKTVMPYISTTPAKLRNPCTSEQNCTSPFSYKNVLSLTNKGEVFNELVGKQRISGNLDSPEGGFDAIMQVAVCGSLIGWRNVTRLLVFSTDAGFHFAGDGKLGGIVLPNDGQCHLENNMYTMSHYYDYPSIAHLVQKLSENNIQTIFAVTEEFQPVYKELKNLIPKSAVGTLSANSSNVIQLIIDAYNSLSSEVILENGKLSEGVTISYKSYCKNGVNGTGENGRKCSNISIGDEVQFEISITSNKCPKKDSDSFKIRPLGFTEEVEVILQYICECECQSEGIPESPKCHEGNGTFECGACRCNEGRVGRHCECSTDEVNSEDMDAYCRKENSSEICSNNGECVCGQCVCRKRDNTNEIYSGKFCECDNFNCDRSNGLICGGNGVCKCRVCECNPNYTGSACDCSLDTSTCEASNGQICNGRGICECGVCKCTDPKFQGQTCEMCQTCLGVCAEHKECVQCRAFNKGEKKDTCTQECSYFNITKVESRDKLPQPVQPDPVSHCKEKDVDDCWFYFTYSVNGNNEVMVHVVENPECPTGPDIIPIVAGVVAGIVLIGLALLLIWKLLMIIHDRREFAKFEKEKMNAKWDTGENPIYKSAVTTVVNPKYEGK
UniProt P19137: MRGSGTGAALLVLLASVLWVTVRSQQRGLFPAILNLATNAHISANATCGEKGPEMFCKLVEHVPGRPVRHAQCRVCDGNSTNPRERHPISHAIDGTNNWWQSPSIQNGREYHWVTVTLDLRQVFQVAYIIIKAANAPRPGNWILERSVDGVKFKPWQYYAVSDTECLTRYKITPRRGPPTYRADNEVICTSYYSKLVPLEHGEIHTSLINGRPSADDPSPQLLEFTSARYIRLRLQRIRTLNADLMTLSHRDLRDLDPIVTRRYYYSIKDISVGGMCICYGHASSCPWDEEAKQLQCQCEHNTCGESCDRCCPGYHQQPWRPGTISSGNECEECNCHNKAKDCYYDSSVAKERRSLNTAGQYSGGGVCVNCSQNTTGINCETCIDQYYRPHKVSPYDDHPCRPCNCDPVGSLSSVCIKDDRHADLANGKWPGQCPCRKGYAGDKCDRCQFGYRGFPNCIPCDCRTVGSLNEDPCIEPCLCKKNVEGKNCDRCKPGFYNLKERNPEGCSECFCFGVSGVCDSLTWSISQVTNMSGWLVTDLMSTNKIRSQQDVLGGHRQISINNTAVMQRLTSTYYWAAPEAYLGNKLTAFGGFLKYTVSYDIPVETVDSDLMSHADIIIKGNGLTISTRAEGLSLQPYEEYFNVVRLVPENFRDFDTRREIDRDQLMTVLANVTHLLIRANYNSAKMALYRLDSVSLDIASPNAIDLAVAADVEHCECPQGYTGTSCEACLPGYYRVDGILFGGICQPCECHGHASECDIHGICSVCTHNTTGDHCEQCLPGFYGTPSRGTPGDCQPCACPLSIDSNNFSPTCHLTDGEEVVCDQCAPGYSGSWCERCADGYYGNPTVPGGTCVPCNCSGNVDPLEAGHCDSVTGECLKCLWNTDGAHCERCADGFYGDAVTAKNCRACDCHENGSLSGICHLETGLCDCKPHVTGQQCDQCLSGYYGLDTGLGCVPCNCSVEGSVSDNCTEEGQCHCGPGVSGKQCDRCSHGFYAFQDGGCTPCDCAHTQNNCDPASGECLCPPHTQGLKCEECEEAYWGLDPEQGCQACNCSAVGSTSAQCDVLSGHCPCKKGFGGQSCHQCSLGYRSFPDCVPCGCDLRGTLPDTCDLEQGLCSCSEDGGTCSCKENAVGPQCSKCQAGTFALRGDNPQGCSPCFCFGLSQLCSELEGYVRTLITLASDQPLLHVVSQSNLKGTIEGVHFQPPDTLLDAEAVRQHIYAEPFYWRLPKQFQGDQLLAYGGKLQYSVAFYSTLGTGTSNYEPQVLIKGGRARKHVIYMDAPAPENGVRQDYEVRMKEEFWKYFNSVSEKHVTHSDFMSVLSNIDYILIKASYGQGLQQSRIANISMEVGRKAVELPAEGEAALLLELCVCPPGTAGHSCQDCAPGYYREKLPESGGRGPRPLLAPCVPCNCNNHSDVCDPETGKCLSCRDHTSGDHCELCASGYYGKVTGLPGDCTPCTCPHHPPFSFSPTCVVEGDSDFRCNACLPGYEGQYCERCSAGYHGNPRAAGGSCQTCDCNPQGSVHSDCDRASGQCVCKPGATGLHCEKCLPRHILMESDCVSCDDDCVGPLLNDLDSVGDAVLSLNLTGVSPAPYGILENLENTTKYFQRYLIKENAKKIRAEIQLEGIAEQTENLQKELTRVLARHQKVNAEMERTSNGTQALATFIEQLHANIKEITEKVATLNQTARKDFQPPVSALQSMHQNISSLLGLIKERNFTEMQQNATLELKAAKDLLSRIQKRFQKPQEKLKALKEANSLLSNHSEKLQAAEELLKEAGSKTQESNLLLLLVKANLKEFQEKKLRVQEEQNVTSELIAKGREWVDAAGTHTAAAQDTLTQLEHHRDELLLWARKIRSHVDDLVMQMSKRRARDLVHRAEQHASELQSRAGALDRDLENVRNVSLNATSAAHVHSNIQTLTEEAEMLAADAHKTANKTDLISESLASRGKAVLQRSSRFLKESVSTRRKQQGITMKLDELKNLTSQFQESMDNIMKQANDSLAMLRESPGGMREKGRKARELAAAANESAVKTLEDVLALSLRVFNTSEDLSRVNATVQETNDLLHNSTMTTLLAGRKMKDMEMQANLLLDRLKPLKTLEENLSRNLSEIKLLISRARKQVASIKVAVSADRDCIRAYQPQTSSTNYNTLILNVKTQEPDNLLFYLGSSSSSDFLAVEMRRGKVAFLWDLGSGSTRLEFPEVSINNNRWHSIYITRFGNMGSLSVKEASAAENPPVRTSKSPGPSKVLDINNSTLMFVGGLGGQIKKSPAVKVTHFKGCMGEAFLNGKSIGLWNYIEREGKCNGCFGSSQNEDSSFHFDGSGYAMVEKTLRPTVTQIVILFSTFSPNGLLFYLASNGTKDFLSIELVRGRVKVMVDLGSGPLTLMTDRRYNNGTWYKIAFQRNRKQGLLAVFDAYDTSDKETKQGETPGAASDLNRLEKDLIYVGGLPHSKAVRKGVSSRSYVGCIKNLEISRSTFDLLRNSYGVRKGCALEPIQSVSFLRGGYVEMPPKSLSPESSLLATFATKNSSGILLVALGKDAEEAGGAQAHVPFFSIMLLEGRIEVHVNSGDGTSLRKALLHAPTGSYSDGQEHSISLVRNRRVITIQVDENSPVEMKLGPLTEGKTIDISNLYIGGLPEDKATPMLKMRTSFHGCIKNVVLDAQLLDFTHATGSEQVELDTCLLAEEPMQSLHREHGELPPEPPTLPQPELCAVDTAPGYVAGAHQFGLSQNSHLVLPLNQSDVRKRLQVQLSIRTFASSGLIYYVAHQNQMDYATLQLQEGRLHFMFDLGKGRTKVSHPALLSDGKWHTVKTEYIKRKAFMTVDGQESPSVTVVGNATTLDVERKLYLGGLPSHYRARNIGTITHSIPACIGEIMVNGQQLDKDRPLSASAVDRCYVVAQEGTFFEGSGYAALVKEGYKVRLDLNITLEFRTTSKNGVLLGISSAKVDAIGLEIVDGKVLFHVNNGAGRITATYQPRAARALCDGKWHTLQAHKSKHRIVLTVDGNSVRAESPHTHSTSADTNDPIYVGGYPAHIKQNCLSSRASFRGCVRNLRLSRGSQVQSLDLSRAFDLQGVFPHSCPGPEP

Biological target: integrin α6β1 on human cells (α6-transfected K562 cells; HT-1080 cells) (human) (UniProt P23229+P05556)
Experiment: adhesion of α6-transfected K562 cells to coated laminin 1

For “Laminin 1 from EHS-tumor (from UniProt P19137 25-3083; P02469 22-1786; P02468 34-1607)”, the binding was “binds”.
